Experimental data: patent publication US20260158046A1, “TREATMENT OF NEURODEGENERATIVE DISORDERS WITH DOXYCYCLINE ALONE OR IN COMBINATION WITH LEVODOPA” (Biohaven Therapeutics Ltd., priority 2023, published 2026)
At least one compound was matched to its structure with a doubt left.

How the values were obtained:
Format in all cases: in vivo, human
[1] = test system: irritable bowel symptoms; experiment: Case report, Patient A: irritable bowel symptoms under doxycycline; conditions: doxycycline 100 mg tablet once daily for approximately two years
[2] = test system: PD tremor; experiment: Case report, Patient A: PD tremor under doxycycline added to levodopa
Text: (§1) Patient A (person one) is a person diagnosed with PD approximately one and a half years earlier and treated with levodopa. […] The patient also experienced intermittent irritable bowel disorder symptoms.

[3] = test system: seborrheic dermatitis; experiment: Case report, Patient A: seborrheic dermatitis under doxycycline
Text: as §1

[4] = doxycycline 100 mg tablet once daily for approximately two years
[5] = doxycycline restarted (first re-challenge)
[6] = second doxycycline de-challenge

`C[C@H]1c2cccc(O)c2C(=O)C2=C(O)[C@]3(O)C(=O)C(C(N)=O)=C(O)[C@@H](N(C)C)[C@@H]3[C@@H](O)[C@@H]21` [doxycycline, Doxycycline] was tested, and the “irritable bowel symptoms, long-term” value [1] was “absence of irritable bowel symptoms”, the “tremor after starting doxycycline” value ([2]; PD patient on levodopa, doxycycline 100 mg tablet once a day, first course) was “clinically significant reduction in tremor” and the “need for increase of levodopa dose” value ([2]; after starting treatment with doxycycline 100 mg, on levodopa) was “dose of levodopa remained stable for approximately two years”. The “tremor after dose increase” value ([2]; dose again increased to 100 mg) was “improvement in tremor”, the “tremor, long-term” value [2, 4] was “clinically significant improvement in tremor” and the tremor after discontinuation ([2]; doxycycline discontinued after approximately 8 weeks (first de-challenge)) was “clinically worsened tremor”. The tremor after restart [2, 5] was “improvement in tremor”, the PD ([2]; doxycycline restarted at 50 mg) was “partial improvement” and the tremor after de-challenge [2, 6] was “tremor clinically worsened”. For the same compound, the “seborrheic dermatitis after dose increase” value ([3]; dose again increased to 100 mg) was “remission of seborrheic dermatitis”, the “seborrheic dermatitis, long-term” value [3, 4] was “complete remission of seborrheic dermatitis” and the “seborrheic dermatitis after restart” value [3, 5] was “remission of seborrheic dermatitis”. For the same compound, the skin symptoms ([3]; doxycycline restarted at 50 mg) was “partial improvement” and the “seborrheic dermatitis after de-challenge” value [3, 6] was “returned within one month”.
